For one compound, activity results are on record in article PMC10135569, “Does Enhanced Structural Maturity of hiPSC-Cardiomyocytes Better for the Detection of Drug-Induced Cardiotoxicity?” (Biomolecules, 2023).

This assay deals with hiPSC-CMs (iCell2 Cardiomyocytes) 2D monolayers. Description: Membrane potential (action potential) recordings with FluoVolt voltage-sensitive dye on the CellOPTIQ platform. The format is cell-based. Conditions: Homo sapiens, Cardiomyocyte, 0.5 h, 30 min, delta over DMSO 0.1%. How it is done: Cardiomyocytes (FUJIFILM Cellular Dynamics, Madison, WI, USA) were kept at −190 °C and prepared for culture as per the manufacturer’s instructions.
Standard fibronectin vs. Matrix Plus well coating: The cells were cultured using two different coatings in a humidified incubator at 37 °C with 5% CO2. First, 96-well glass-bottomed plates (MatTek, Ashland, MA) were coated with fibronectin ([…] in PBS supplemented with Ca^2+ and Mg^2+; Sigma, St. Louis, MO, USA) (defining FM). Second, CELLvo^TM Matrix Plus (StemBioSys, San Antonio, TX, USA), which were pre-coated on 96 well glass bottom plates and kept at 4 °C. On the day of plating, CELLvo^TM Matrix Plus plates were transferred to room temperature, rehydrated with phosphate buffer saline (PBS), incubated for 1 h at 37 °C, and washed 2× with PBS. Cells were introduced at a density of 50,000 cells/well to allow the formation of a confluent monolayer in each well (defined as MM). The maintenance protocols followed the manufacturer’s instructions and used the iCell^2 Cardiomyocytes Maintenance media for media changes every 2 days. Experiments were performed between days 5 and 6, as recommended by the manufacturers. Before beginning an experiment, cells were washed in serum-free media (SF media) (Fluorobrite DMEM, Gibco, Thermo Fisher Scientific, Horsham, UK).
The drug powders were dissolved in DMSO, and four stock concentrations at 1000× the final target concentration were prepared in DMSO. For the experiment, an intermediate concentration 2× the target solution was prepared in SF media. The addition of drugs to the cells was accomplished by replacing 50% of the well volume with the intermediate 2× solution. The same procedure was done for vehicle control using DMSO. […]
Cultures of hiPSC-CMs (5–6 days post-plating) were treated with FluoVolt dye (1:1000, Invitrogen, Cat# F10488) in SF media and incubated for 20 min at 37 °C with 5% CO2 and 80% humidity. […] The FluoVolt signal was recorded from a 0.2 mm × 0.2 mm area using a 40× (numerical aperture: NA 0.6) Excitation wavelength was 470 ± 10 nm using a light-emitting diode (LED), and emitted light was collected by two photomultipliers (PMTs) at 510–560 nm (channel 1) and 590–650 nm (channel 2), respectively. […] In the case of FluoVolt-based action potential recordings, the short wavelength (channel 1, […]) was analyzed for action potential features.
The dye FluoVolt is loaded into the surface membrane (outer leaflet), and the dye remains within the membrane for many dots, allowing intermittent voltage measurements over the experimental period. […] Baseline spontaneous electrical activity and the associated contractility signal were recorded by capturing 10 s segments of fluorescent signal and video for 2D plates and 15 s for organoids from each well prior to compound addition. […]

Like-named read-outs stand apart in the source and are kept apart here.

With `O=C(O)COCCN1CCN(C(c2ccccc2)c2ccc(Cl)cc2)CC1` (stereo not shown) [Cetirizine], the activity at 1 µM (FM monolayer, 1 µM, read-out: Trise (%DD)) amounted to 114 ± 19.9%. Besides, the activity at 0.1 µM (MM monolayer, 0.1 µM, read-out: APD30 (%DD)) came out at 90 ± 1.8%. The activity at 0.3 µM reads like this: (MM monolayer, read-out: APD30 (%DD)) 90 ± 1.2%; (MM monolayer, read-out: Trise (%DD)) 90 ± 11.2%.
